This is one part of the list. Shown are side measurements of this screen, not its main read-out; they come without a call. Most of these compounds were active or inconclusive in the main read-out, so they are no random draw. Words in brackets tell the shape of the fitted curve; partial curves, single points and poor fits give uncertain potencies.
Test: qHTS Assay for Lipid Storage Modulators in Drosophila S3 Cells;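 as to cell number change: cells counted by Cell Tracker Red CMTPX staining in the red channel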
Settings: BODIPY lipid droplet fluorescence, 18-24 h; for cell number change: measured here: cell count max response, cells fed with added oleic acid
How it was run: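 Laser-scanning cytometry quantifies lipid droplet accumulation (500–530 nm total intensity; droplet/cell object ratio) in oleic acid-fed (400 uM added) Drosophila S3 cells treated with a concentration series. 20 uM Triacsin C defined 100% inhibition.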

[1] = measured here: lipid fluorescence (Fed channel) AC50, cells fed with added oleic acid
[2] = measured here: cell number channel AC50, cells fed with added oleic acid

Structure (SMILES) | cell number change [%] | AC50 [1] | AC50 [2]
O=C(NCc1ccco1)c1ccccc1SCC(=O)N1CCCC1 | 19.7 | 4.61 µM [rising, full curve, poor fit] | 
N=c1c2c(-c3ccccc3)c(-c3ccccc3)n(Cc3ccco3)c2ncn1Cc1ccco1 | -29 | 32.6 µM [falling, single point] | 
COc1ccc(C(=O)NCC(c2cccnc2)N2CCN(c3ccccc3OC)CC2)cc1OC (configuration not stated) |  | 0.411 µM [rising, full curve] | 0.259 µM [rising, partial curve, poor fit]
O=C(Nc1cccs1)Nc1ccccc1Cl | -9.17 | 0.0326 µM [rising, full curve, poor fit] | 
Cc1nn(-c2ccccc2)c(N2CCCC2)c1/C=N/NC(=S)Nc1ccccc1F | -51.4 | 13 µM [rising, partial curve, poor fit] | 29.1 µM [falling, single point]
CCCC(=O)Nc1ccc(Cl)c(NC(=S)NC(=O)c2cc3ccccc3o2)c1 | -46.2 | 5.8 µM [falling, partial curve] | 3.26 µM [falling, full curve, poor fit]
CC(=O)Nc1ccc(N2Cc3ccccc3C2)cc1 | -7.37 |  | 
COc1cc(OC)cc(C(=O)N[C@H](C(=O)Nc2ccccc2N2CCOCC2)C(C)C)c1 | 96.1 | 2.31 µM [rising, partial curve] | 3.66 µM [rising, full curve]
Cc1cc(/C=C\c2ccc3cc(N(C)C)ccc3[n+]2C)c(C)n1-c1ccccc1 | -100 | 0.82 µM [falling, full curve] | 1.03 µM [falling, full curve]
O=C(COc1ccc(Br)cc1Cl)N1CCN(c2ccccn2)CC1 | 13.8 |  | 3.66 µM [rising, partial curve]
COc1ccccc1OCC(O)Cn1nc(C)cc1C (configuration not stated) |  | 6.51 µM [rising, single point] | 
O=C(c1ccccc1)c1nnc(-c2ccncc2)o1 | 29.7 | 5.17 µM [falling, partial curve] | 
CCN1CCN(CCC(=O)Nc2cc(OC)cc(OC)c2)CC1 | 10.1 |  | 
CCOC(=O)c1nnn2c1nc(Nc1cccc(C(F)(F)F)c1)c1ccccc12 | 4.47 | 0.651 µM [rising, full curve] | 
CCN(CC)CCN1C(=O)C(=O)/C(=C(/O)c2ccc(OC(C)C)cc2)C1c1ccncc1 (configuration not stated) | 2.9 | 0.651 µM [falling, single point] | 
CCOC(=O)CNC(=O)CSc1nc2cccnc2n1Cc1ccccc1 | -24.1 |  | 

Part of the list above, tab-delimited:
Structure (SMILES)	cell number change [%]	AC50 [1]	AC50 [2]
COc1cc(OC)cc(C(=O)N[C@H](C(=O)Nc2ccccc2N2CCOCC2)C(C)C)c1	96.1	2.31 µM [rising, partial curve]	3.66 µM [rising, full curve]
Cc1cc(/C=C\c2ccc3cc(N(C)C)ccc3[n+]2C)c(C)n1-c1ccccc1	-100	0.82 µM [falling, full curve]	1.03 µM [falling, full curve]
O=C(COc1ccc(Br)cc1Cl)N1CCN(c2ccccn2)CC1	13.8		3.66 µM [rising, partial curve]
COc1ccccc1OCC(O)Cn1nc(C)cc1C (configuration not stated)		6.51 µM [rising, single point]	

— PubChem BioAssay AID2685 (National Center for Advancing Translational Sciences (NCATS), 2010)
